Reference: the supplement of paper PMC10849652
The list shows a part of the results.

Chains of the proteins cited; added tags and fusions are not shown. Lines headed by an entry give the natural chain unless they say otherwise; changes in a name come on top.
UniProt Q7Z5G4, whole entry, looked up: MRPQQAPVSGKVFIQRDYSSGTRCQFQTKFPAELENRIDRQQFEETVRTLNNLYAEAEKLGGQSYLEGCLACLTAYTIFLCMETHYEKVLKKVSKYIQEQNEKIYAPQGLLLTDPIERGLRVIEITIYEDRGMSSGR
UniProt P04899, whole entry, looked up: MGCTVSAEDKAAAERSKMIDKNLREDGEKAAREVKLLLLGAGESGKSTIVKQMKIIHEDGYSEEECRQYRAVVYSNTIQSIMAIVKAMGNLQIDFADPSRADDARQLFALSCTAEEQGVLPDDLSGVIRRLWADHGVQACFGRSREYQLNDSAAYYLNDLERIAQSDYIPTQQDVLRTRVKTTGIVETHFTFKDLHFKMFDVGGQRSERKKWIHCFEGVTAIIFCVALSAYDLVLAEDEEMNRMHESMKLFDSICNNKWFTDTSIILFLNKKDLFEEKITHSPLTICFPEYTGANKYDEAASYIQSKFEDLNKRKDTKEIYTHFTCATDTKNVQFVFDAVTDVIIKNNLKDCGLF
UniProt Q9NPB8: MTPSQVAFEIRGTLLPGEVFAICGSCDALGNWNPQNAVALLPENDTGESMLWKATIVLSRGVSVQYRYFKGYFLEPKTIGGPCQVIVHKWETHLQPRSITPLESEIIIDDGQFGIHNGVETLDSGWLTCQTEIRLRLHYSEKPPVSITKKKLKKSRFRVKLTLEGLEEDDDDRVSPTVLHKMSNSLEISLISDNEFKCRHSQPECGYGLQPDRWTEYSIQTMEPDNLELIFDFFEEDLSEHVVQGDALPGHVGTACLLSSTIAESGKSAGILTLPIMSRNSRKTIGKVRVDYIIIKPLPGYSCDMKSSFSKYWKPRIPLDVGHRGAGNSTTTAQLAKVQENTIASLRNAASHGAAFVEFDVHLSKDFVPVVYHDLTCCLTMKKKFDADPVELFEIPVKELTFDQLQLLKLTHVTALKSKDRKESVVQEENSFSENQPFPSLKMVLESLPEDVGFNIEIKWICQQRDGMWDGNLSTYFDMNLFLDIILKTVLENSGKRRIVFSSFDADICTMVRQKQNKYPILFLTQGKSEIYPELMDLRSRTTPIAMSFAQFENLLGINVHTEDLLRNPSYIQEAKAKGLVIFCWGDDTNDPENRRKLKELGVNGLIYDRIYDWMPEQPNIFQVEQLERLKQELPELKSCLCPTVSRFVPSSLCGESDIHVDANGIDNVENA
UniProt P19440: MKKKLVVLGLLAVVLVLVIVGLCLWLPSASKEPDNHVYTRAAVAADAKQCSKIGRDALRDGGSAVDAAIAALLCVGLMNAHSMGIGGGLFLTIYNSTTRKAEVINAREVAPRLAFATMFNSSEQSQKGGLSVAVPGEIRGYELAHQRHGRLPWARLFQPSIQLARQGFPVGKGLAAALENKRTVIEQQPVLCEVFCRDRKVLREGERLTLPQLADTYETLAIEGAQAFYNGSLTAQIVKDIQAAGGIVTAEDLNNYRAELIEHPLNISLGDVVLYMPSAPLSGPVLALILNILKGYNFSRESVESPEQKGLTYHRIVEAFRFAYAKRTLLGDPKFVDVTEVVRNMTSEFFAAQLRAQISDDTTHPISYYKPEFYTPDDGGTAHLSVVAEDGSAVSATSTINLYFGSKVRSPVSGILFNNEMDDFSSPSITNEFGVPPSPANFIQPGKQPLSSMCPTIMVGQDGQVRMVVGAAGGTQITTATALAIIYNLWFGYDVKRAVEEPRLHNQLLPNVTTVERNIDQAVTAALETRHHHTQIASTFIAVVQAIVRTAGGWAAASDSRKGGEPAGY
UniProt O60234, whole entry, looked up: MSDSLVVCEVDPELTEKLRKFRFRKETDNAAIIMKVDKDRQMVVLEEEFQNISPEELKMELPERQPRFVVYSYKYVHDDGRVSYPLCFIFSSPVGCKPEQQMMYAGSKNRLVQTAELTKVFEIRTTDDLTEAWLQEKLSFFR
UniProt P00367: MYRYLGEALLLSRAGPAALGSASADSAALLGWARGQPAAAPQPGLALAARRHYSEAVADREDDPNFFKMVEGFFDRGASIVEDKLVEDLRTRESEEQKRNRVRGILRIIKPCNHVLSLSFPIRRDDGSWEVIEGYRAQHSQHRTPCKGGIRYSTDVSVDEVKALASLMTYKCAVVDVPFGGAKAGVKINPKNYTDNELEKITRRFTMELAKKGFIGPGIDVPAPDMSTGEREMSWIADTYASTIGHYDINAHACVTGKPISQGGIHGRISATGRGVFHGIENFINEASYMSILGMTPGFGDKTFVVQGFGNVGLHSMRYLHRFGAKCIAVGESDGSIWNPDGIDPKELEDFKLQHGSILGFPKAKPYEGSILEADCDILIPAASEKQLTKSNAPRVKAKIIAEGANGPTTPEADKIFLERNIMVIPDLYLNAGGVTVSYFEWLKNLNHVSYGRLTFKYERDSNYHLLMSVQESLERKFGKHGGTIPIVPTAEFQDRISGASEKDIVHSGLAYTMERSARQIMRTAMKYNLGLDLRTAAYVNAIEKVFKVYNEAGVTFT
UniProt O95249: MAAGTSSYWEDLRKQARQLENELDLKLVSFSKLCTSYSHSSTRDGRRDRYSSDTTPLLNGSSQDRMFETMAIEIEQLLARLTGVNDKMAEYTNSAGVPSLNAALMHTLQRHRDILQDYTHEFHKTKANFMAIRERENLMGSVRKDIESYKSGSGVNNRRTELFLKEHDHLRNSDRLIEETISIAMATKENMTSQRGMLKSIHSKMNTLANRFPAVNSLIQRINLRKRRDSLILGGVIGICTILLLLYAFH
UniProt P15104, whole entry, looked up: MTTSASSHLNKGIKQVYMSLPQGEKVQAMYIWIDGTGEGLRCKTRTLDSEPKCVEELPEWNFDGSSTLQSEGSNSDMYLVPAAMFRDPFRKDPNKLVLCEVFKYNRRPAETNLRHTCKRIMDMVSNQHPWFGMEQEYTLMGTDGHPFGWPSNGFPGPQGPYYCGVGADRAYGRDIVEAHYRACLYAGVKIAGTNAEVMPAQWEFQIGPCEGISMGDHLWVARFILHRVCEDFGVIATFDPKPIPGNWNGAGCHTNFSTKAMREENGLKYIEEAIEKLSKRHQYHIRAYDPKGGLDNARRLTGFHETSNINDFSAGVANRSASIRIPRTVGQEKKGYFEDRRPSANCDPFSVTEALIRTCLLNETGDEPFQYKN
UniProt Q9Y5P6: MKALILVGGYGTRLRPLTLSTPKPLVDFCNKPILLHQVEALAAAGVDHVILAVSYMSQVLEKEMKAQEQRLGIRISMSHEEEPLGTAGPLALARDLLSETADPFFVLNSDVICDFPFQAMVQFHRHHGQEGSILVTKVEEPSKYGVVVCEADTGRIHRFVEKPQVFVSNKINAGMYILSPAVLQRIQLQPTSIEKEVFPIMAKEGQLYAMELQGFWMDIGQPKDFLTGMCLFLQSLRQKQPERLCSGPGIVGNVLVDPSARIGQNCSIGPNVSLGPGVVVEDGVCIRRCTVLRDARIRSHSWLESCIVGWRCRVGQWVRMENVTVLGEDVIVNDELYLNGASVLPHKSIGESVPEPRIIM
UniProt Q5T3I0: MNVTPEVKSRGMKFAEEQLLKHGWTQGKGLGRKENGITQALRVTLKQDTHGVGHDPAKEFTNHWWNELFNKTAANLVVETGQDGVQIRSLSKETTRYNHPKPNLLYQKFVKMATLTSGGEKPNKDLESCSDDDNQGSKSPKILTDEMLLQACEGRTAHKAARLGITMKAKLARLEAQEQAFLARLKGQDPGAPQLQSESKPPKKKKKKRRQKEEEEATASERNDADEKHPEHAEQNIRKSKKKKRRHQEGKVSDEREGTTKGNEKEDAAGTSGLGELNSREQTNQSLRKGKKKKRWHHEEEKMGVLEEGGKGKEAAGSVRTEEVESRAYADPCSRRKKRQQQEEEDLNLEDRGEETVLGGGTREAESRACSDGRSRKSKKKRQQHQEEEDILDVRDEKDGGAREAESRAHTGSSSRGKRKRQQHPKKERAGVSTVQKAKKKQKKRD
UniProt Q92805: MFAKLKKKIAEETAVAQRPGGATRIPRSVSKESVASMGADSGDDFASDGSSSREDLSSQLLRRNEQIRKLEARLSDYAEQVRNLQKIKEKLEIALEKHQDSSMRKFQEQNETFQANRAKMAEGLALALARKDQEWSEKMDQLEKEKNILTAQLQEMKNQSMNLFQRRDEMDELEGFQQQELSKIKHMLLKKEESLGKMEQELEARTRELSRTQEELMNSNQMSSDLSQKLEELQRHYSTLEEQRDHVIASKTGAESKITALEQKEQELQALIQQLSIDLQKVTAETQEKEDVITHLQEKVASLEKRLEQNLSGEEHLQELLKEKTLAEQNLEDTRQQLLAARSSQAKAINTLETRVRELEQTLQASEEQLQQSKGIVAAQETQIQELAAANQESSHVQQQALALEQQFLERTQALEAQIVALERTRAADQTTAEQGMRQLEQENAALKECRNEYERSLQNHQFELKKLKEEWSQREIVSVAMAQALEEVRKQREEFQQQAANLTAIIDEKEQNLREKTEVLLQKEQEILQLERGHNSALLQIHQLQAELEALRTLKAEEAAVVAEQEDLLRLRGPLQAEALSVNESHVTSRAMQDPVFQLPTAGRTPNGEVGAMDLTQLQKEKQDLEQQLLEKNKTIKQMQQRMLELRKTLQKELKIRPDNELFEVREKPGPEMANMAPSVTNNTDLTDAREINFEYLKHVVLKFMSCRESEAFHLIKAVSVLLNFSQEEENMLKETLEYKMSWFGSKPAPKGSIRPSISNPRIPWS
UniProt Q9NWQ4: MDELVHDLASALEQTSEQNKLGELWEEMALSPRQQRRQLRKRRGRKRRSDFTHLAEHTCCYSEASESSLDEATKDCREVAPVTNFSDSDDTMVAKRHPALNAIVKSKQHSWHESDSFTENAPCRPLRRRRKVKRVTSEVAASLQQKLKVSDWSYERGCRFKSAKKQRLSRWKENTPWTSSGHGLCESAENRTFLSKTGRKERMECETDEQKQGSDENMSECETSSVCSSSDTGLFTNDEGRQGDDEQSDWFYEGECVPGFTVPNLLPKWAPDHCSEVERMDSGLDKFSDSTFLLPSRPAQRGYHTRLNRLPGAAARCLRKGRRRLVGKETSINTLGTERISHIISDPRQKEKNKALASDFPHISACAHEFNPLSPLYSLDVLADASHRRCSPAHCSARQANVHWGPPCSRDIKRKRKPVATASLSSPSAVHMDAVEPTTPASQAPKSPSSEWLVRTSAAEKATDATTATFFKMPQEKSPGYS
UniProt Q14956: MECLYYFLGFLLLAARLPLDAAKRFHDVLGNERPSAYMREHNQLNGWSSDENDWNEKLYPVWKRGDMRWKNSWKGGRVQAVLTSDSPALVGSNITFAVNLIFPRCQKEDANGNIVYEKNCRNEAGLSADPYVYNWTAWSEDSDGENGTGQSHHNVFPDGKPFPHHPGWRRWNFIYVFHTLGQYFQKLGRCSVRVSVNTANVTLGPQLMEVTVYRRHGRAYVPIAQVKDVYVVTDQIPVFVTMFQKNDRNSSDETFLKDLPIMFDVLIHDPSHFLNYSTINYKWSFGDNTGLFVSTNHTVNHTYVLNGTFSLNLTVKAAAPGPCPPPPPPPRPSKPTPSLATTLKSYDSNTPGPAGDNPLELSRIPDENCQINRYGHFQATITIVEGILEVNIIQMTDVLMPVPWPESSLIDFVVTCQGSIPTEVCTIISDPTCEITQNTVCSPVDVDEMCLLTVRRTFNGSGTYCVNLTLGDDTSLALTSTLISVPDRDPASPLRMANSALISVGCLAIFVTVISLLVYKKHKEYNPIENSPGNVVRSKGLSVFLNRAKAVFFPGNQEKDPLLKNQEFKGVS

How the values were obtained:
Test in all cases: log2 fold change, soluble protein after heating vs DMSO (PISA); higher = thermal stabilisation; K562 lysate, 10 uM; active = over 0.2 and 3.5 SD of the protein, either way, in both replicates (recomputed)
erlotinib = compound: C#Cc1cccc(Nc2ncnc3cc(OCCOC)c(OCCOC)cc23)c1 [erlotinib]
Outline: (§1)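 Soluble protein was defined as the supernatant remaining after 21,000xg for 90 min, following pooling of heated aliquots and adjustment to 0.5% NP-40 at 4°C. Before that, crude K562 extract at 1 mg/mL protein in PBS pH 7.4 with 1 mM MgCl2 was treated with 10 μM compound for 30 min and heated for 3 min across 48°C-58°C. Quantification used TMTpro 16plex LC-MS/MS with channel sums equalised, and values are log-two fold changes in thermal stability relative to solvent controls from duplicates.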

[1] = compound: C/C(=N\NC(=O)C1=CC(=CC=C1)S(=O)(=O)N2CCOCC2)/C3=C(C=CC(=C3)Cl)O
Outline: as §1

[2] = compound: C1=CC(=CC=C1C2=NC3=C(N2)C=C(C=C3)C(=O)N)OC4=CC=C(C=C4)Cl
Outline: as §1

[3] = compound: C1=CC2=C(C=CC(=C2)/C=C\3/C(=O)NC(=NCC4=CC=CS4)S3)N=C1
Outline: as §1

[4] = compound: C1=CC2=NC=CN=C2C=C1/C=C/3\C(=O)NC(=O)S3
Outline: as §1

[5] = compound: C1=CC=C(C=C1)C2=NC(=C(N2)C3=CC=NC=C3)C4=CC(=C(C=C4)Cl)O
Outline: as §1

[6] = compound: C1=CC=C2C(=C1)C3=NNC4=CC=CC(=C43)C2=O
Outline: as §1

[7] = compound: C1CCN(C1)C(=O)NC2=CC=CC(=C2)NC3=NC=C(C(=N3)NCCC4=CN=CN4)Br
Outline: as §1

[8] = compound: C1CN(CCC1(CC2=CC=C(C=C2)Cl)N)C3=NC=NC4=C3C=CN4
Outline: as §1

IRAK-1-4 Inhibitor I = compound: C1COCCN1CCN2C3=CC=CC=C3N=C2NC(=O)C4=CC(=CC=C4)[N+](=O)[O-] [IRAK-1-4 Inhibitor I]
Outline: as §1

ibrutinib = compound: C=CC(=O)N1CCC[C@@H](n2nc(-c3ccc(Oc4ccccc4)cc3)c3c(N)ncnc32)C1 [ibrutinib]
Outline: as §1

[9] = compound: CC(=O)c1cnc2ccc(-c3cc(Cl)c(O)c(Cl)c3)nc2c1N[C@H]1CC[C@H](CN(C)C)CC1
Outline: as §1

ralimetinib = compound: CC(C)(C)Cn1c(N)nc2ccc(-c3[nH]c(C(C)(C)C)nc3-c3ccc(F)cc3)nc21 [ralimetinib]
Outline: as §1

[10] = compound: CC(C)(O)CC(=O)NCCn1ccc2ncnc(Nc3ccc(Oc4cccc(C(F)(F)F)c4)c(Cl)c3)c21
Outline: as §1

[11] = compound: CC(C)C1=C2N=C(C=C(N2N=C1)NCC3=CC=CC=C3)NCCCCCCN
Outline: as §1

[12] = compound: CC1=C(C(CC(=O)N1)C2=CC=C(C=C2)C(F)(F)F)C(=O)NC3=C(C=C4C(=C3)C=NN4)F
Outline: as §1

[13] = compound: CC1=C(C2=C(C=C1)C(=O)C3=CC=CC=C3N2CCCN)C
Outline: as §1

[14] = compound: CC1=C(C=C(C=C1)NC(=O)C2=CC(=CC=C2)C(C)(C)C#N)NC3=CC4=C(C=C3)N=CN(C4=O)C
Outline: as §1

[15] = compound: CC1=C(C=C(C=C1)NC(=O)C2=CC(=CC=C2)N(C)C)NC(=O)C3=CC=C(C=C3)O
Outline: as §1

[16] = compound: CC1=CC=C(C=C1)SC2=C3C=C(SC3=CN=C2)C(=O)N
Outline: as §1

Measured: log2 fold change

GOLGA7 (UniProt Q7Z5G4)
inactive: erlotinib -0.008 | [1] -0.073 | [2] -0.028 | [3] 0.051 | [4] -0.032 | [5] 0.04 | [6] 0.039 | [7] -0.043 | [8] 0.022 | IRAK-1-4 Inhibitor I 0.034 | ibrutinib 0.107 | [9] -0.032 | ralimetinib -0.007 | [10] -0.035 | [11] 0.051 | [12] -0.036 | [13] -0.028 | [14] 0.045 | [15] -0.008 | [16] -0.005

GNAI2 (UniProt P04899)
inactive: erlotinib 0.014 | [1] 0.025 | [2] -0.031 | [3] -0.006 | [4] -0.006 | [5] 0.008 | [6] 0.031 | [7] -0.021 | [8] 0.044 | IRAK-1-4 Inhibitor I 0.001 | ibrutinib 0.004 | [9] -0.012 | ralimetinib 0.017 | [10] -0.035 | [11] -0.023 | [12] -0.005 | [13] 0.006 | [14] 0.044 | [15] -0.022 | [16] 0.001

GPCPD1 (UniProt Q9NPB8)
inactive: erlotinib 0.046 | [1] -0.053 | [2] 0.034 | [3] -0.025 | [4] -0.028 | [5] -0.043 | [6] -0.028 | [7] -0.005 | [8] 0.036 | IRAK-1-4 Inhibitor I -0.033 | ibrutinib 0.012 | [9] 0.018 | ralimetinib 0.026 | [10] 0.021 | [11] -0.018 | [12] 0.019 | [13] -0.018 | [14] -0.053 | [15] -0.007 | [16] 0.065

GGT1 (UniProt P19440)
inactive: erlotinib -0.003 | [1] 0.007 | [2] -0.021 | [3] 0.029 | [4] -0.038 | [5] -0.002 | [6] -0.022 | [7] -0.024 | [8] -0.021 | IRAK-1-4 Inhibitor I -0.025 | ibrutinib 0.019 | [9] -0.011 | ralimetinib 0.048 | [10] 0.007 | [11] -0.044 | [12] -0.005 | [13] 0.004 | [14] -0.024 | [15] 0.002 | [16] 0.041

Fetched one by one from above, two records:
GNAI2 (UniProt P04899)
inactive: erlotinib 0.014 | [1] 0.025 | [2] -0.031 | [3] -0.006 | [4] -0.006 | [5] 0.008 | [6] 0.031 | [7] -0.021 | [8] 0.044 | IRAK-1-4 Inhibitor I 0.001 | ibrutinib 0.004 | [9] -0.012 | ralimetinib 0.017 | [10] -0.035 | [11] -0.023 | [12] -0.005 | [13] 0.006 | [14] 0.044 | [15] -0.022 | [16] 0.001

GGT1 (UniProt P19440)
inactive: erlotinib -0.003 | [1] 0.007 | [2] -0.021 | [3] 0.029 | [4] -0.038 | [5] -0.002 | [6] -0.022 | [7] -0.024 | [8] -0.021 | IRAK-1-4 Inhibitor I -0.025 | ibrutinib 0.019 | [9] -0.011 | ralimetinib 0.048 | [10] 0.007 | [11] -0.044 | [12] -0.005 | [13] 0.004 | [14] -0.024 | [15] 0.002 | [16] 0.041

Continued.

GMFG (UniProt O60234)
inactive: erlotinib -0.029 | [1] -0.089 | [2] -0.012 | [3] -0.007 | [4] -0.022 | [5] -0.05 | [6] 0.044 | [7] 0.034 | [8] 0.012 | IRAK-1-4 Inhibitor I -0.023 | ibrutinib 0.04 | [9] 0.057 | ralimetinib 0.085 | [10] 0.045 | [11] -0.003 | [12] -0.042 | [13] 0.061 | [14] 0.011 | [15] -0.024 | [16] 0

GLUD1 (UniProt P00367)
inactive: erlotinib -0.016 | [1] 0.011 | [2] -0.018 | [3] -0.007 | [4] -0.029 | [5] -0.031 | [6] -0.006 | [7] -0.004 | [8] 0.014 | IRAK-1-4 Inhibitor I 0.024 | ibrutinib -0.017 | [9] 0.063 | ralimetinib -0.002 | [10] -0.009 | [11] -0.02 | [12] -0.02 | [13] 0.019 | [14] 0.027 | [15] -0.018 | [16] -0.006

GOSR1 (UniProt O95249)
inactive: erlotinib -0.028 | [1] 0.015 | [2] -0.166 | [3] -0.076 | [4] -0.009 | [5] -0.004 | [6] -0.091 | [7] 0.086 | [8] -0.032 | IRAK-1-4 Inhibitor I -0.008 | ibrutinib 0.009 | [9] 0.005 | ralimetinib 0.016 | [10] -0.013 | [11] -0.024 | [12] 0.052 | [13] 0.016 | [14] 0.036 | [15] -0.008 | [16] -0.023

GLUL (UniProt P15104)
inactive: erlotinib -0.003 | [1] 0.032 | [2] -0.002 | [3] 0.029 | [4] -0.03 | [5] 0.005 | [6] 0.007 | [7] 0.013 | [8] 0.017 | IRAK-1-4 Inhibitor I -0.017 | ibrutinib 0.031 | [9] 0.004 | ralimetinib 0.006 | [10] -0.002 | [11] -0.008 | [12] 0.026 | [13] 0.023 | [14] -0.117 | [15] -0.011 | [16] 0.031

GMPPB isoform 2 (UniProt Q9Y5P6)
inactive: erlotinib 0.052 | [1] -0.189 | [2] -0.024 | [3] -0.063 | [4] 0.022 | [5] -0.012 | [6] 0.001 | [7] 0.021 | [8] 0.047 | IRAK-1-4 Inhibitor I 0.028 | ibrutinib -0.018 | [9] 0.002 | ralimetinib 0.022 | [10] -0.031 | [11] 0.005 | [12] 0.009 | [13] -0.018 | [14] 0.018 | [15] 0.011 | [16] 0.003

GPATCH4 isoform 3 (UniProt Q5T3I0)
inactive: erlotinib -0.064 | [1] -0.07 | [2] -0.038 | [3] 0.009 | [4] -0.039 | [5] -0.022 | [6] 0.052 | [7] 0.006 | [8] -0.022 | IRAK-1-4 Inhibitor I -0.008 | ibrutinib -0.024 | [9] 0.036 | ralimetinib 0.038 | [10] 0.099 | [11] 0.021 | [12] 0.039 | [13] -0.007 | [14] 0.166 | [15] -0.004 | [16] 0.072

GOLGA1 (UniProt Q92805)
inactive: erlotinib 0.029 | [1] 0.09 | [2] -0.002 | [3] -0.004 | [4] 0.021 | [5] 0 | [6] 0.124 | [7] 0.018 | [8] 0.038 | IRAK-1-4 Inhibitor I 0.017 | ibrutinib 0.128 | [9] 0.008 | ralimetinib -0.024 | [10] -0.018 | [11] -0.019 | [12] 0.081 | [13] 0.027 | [14] -0.023 | [15] 0.019 | [16] 0.034

GPATCH2L (UniProt Q9NWQ4)
inactive: [5] -0.066 | [7] -0.202 | [8] 0.089 | IRAK-1-4 Inhibitor I -0.258 | ralimetinib 0.112 | [10] 0.156 | [13] -0.159 | [14] 0.124 | [15] 0.005

GPNMB (UniProt Q14956)
inactive: [4] -0.141 | ibrutinib -0.07 | [9] -0.375 | [12] -0.072 | [13] -0.229 | [14] 0.739 | [16] -0.17
